Test results reported in PubChem BioAssay AID493014 (National Center for Advancing Translational Sciences (NCATS), 2011).
Out of some 340,000 compounds screened, about 170 (0.05%) were called active. Inconclusive results, whose numbers are uncertain, are shown with a selection of clear calls. Calls follow the shape of the dose curve; as a rule, active = well fitted inhibition curve with a large enough effect in the signal ratio, with a control signal flat (not every such curve was filed as active); inconclusive = small, poorly fitted or top-dose-only effect, or effect the other way, or a change in a side signal; inactive = flat fitted curve, though single readings scatter; the % refers to the signal ratio. Potencies of inconclusive entries are doubtful fits and often do not repeat.

assay: qHTS Assay to Find Inhibitors of Chronic Active B-Cell Receptor Signaling; settings: ABC-DLBCL IkBa-CBG/CBR reporter, luminescence ratio (green luciferase fused to IkBa over red control in TMD8 lymphoma cells), 4 h; activity change, negative = inhibition: at 46.1 µM (top of the series) unless noted;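 as to activity change, negative = inhibition: plate controls were basal doxycycline-induced cells for no effect and cells given 10 µM MG132 for full effect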
Summary of the method: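 Cell line TMD8 (human ABC DLBCL), stably expressing tet-inducible CBG68-IkBa fusion and CBR; IMDM/0.5% FBS; cpd up to 46 uM; dox induction, 4 h, 37C/5% CO2; dual luminescence; green/red ratio; MG132 control.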
Potency is read from the fitted curve at half-maximal effect.

SMILES | activity change, negative = inhibition | Potency
Fc1cccc(CSc2ccc(-c3ccc4c(c3)OCO4)nn2)c1 | inconclusive: 6.89% | 
O=C(CCS(=O)(=O)c1ccccc1)N(CCCN1CCOCC1)c1nc2ccccc2s1 | inconclusive: -8.97% | 
Cc1nc2ccc(NC(=S)N3CCN(c4ccccn4)CC3)cc2nc1C | inconclusive: 2.13% | 
CCOc1ccc(C(=O)Nc2cccc3ncccc23)cc1Br | inactive | 
COc1ccc(/C=N/NC(=O)c2nnn(-c3nonc3N)c2-c2cccc(OC)c2)cc1 | inactive | 
CCC1=C(OC(=O)N(CC)CC)N2C(=O)OC(=NCCc3c[nH]c4ccccc34)[C@]2(Cc2ccccc2)[C@H]2C1=CC[C@H]1C(=O)N(CC(=O)OC)C(=O)[C@H]12 | inconclusive: 6.03% | 
CCc1ccc(C2C(C#N)=C(N)SC(N)=C2C#N)cc1 | inactive | 
C[C@H]1CN=C(N(C)C)N1CCC1CCCCC1 | inactive | 
Cc1ccccc1C1=NC(C(F)(F)F)(C(F)(F)F)c2c(n(C)c(=O)n(C)c2=O)N1 | inconclusive: -1.63% | 
Cc1ccc(C)c(NC2=NS(=O)(=O)c3ccccc32)c1 | inconclusive: -2.54% | 
CC1CN(C)C(C)c2c1oc1ccc(N)cc21 (configuration not stated) | inactive | 
Cc1ccc(-c2nnc(NC(=O)CCS(=O)(=O)c3ccccc3)o2)c(C)c1 | inactive | 
CCS(=O)c1ccccc1C(=O)OCC(=O)Nc1ccc2ccccc2c1 (configuration not stated) |  | inconclusive: 16.4 µM [falling, single point]
Clc1ccc2c(NCc3ccccn3)ccnc2c1 | inconclusive: 0.0535% | 
Cc1[nH][nH]c(=O)c1C(c1c(C)[nH][nH]c1=O)c1cn(Cc2ccccc2Cl)c2ccccc12 |  | inconclusive: 29.1 µM [falling, single point]
c1ccc(OCCOc2ncnc3sccc23)cc1 | inconclusive: 11.6% | 
CN(C)S(=O)(=O)Oc1cccc(C(=O)Nc2ccc(Cl)cc2)c1 | inconclusive: -12.8% | 
Cc1cc(C)n2nc(-c3cnn(C)c3C(F)(F)F)c(Cl)c2n1 | inconclusive: -18.7% | 
CCOC(=O)Cc1csc(NC(=O)COc2ccc3ccccc3c2)n1 |  | inconclusive: 1.58 µM [falling, full curve, poor fit]
Cc1ccc(Cc2nnc(SCC(=O)Nc3c(C)cccc3C)[nH]c2=O)cc1 | inactive | 
Cc1cc(C)c(NC(=O)CCc2c(C)noc2C)c(C)c1 | inconclusive: 2.39% | 
COc1c(Br)cc(Br)cc1/C=N/n1c(C)nnc1C |  | inconclusive: 20.6 µM [falling, partial curve, poor fit]
N#CCC(=O)Nc1ccc(C(=O)OCC(=O)Nc2ccccc2Sc2ccccc2)cc1 |  | inconclusive: 35.5 µM [falling, single point]
c1ccc(Cc2noc(CN3CCN(C4CCc5ccccc5C4)CC3)n2)cc1 (configuration not stated) |  | inconclusive: 20 µM [falling, partial curve, poor fit]
Fc1ccc(-c2cnn3c(-c4cccs4)ccnc23)cc1 |  | inconclusive: 3.98 µM [falling, single point]
COc1ccc(/C=C2\CCCc3c2nc2ccccc2c3C(=O)O)cc1OC | inactive | 

Part of the list above, with tabs:
SMILES	activity change, negative = inhibition	Potency
Cc1nc2ccc(NC(=S)N3CCN(c4ccccn4)CC3)cc2nc1C	inconclusive: 2.13%	
C[C@H]1CN=C(N(C)C)N1CCC1CCCCC1	inactive	
COc1ccc(/C=C2\CCCc3c2nc2ccccc2c3C(=O)O)cc1OC	inactive	

Carrying on:

SMILES | activity change, negative = inhibition | Potency
CNC(=O)Nc1cccc(C(F)(F)F)c1 | inconclusive: 16.1% | 
CC(=O)Nc1nc(C)c(C(C)=O)s1 |  | inconclusive: 14.6 µM [falling, partial curve, poor fit]
CC(C)c1c(C(=O)N/N=C2\CCc3ccccc32)nnn1-c1nonc1N | inactive | 
CC1CC2(CCCC2)N(C(=O)N(C)C)c2ccc(F)cc21 (configuration not stated) | inconclusive: 7.46% | 
O=C(NNC(=S)Nc1ccccc1Cl)C1CC1 | inconclusive: -0.147% | 
Cc1ccc(S(=O)(=O)N2[C@@H](c3ccccc3F)C(C(=O)O)=CC[C@H]2c2ccc(Cl)c(Cl)c2)cc1 | inactive | 
CCCc1nnc(NC(=O)CS(=O)(=O)c2ccccc2)s1 | inconclusive: -0.525% | 
CCCCN(C(=O)CCC(=O)Nc1cc(C)on1)C(C(=O)NC1CCCC1)c1ccccc1OCC (configuration not stated) | inactive | 
COc1cccc(C(=O)NC(=S)Nc2ccc(Cl)cc2C(=O)O)c1 |  | inconclusive: 5.62 µM [falling, partial curve]
Cc1ccc(SCc2cn3cc(Cl)ccc3n2)cc1 | inconclusive: -2.28% | 
Cc1ccc(S(=O)(=O)NCCCCCC(=O)Nc2nccs2)cc1 | inconclusive: -5.56% | 
O=C(COc1ccc2c(-c3ccccc3)cc(=O)oc2c1)NCCCn1ccnc1 | inconclusive: 21.8% | 
COc1ccc(/C=C2\SC(=N)N(c3nccs3)C2=O)cc1OC | inconclusive: -14.4% | 
Cc1ccc(C(=O)CCC2CCCC2=O)cc1 (configuration not stated) | inconclusive: 16.1% | 
COc1cccc(C(C(=O)NC(C)(C)C)N(CCC(C)C)C(=O)CCC(=O)Nc2cc(C)on2)c1OC (configuration not stated) | inconclusive: -2.71% | 
CCOc1ccc(NC(=O)CC)cc1 | inactive | 
Cc1ccc(CN(C)C(=O)C2CCCN2C(=O)c2cccs2)o1 (configuration not stated) | inconclusive: -0.31% | 
S=C(Nc1ccccc1Cl)N(Cc1ccccc1)Cc1ccccn1 |  | inconclusive: 35.5 µM [falling, single point]
CCC(C)(C)c1ccc(Oc2cccc(C(=O)O)c2)cc1 | inconclusive: 10% | 
CC(=O)Oc1ccc(C(=O)Nc2cccc(C(=O)c3cccc(NC(=O)c4ccc(OC(C)=O)cc4)c3)c2)cc1 | inconclusive: -5.76% | 
COc1ccc(C(=O)NN=C2CCCC2)cc1 |  | inconclusive: 11.2 µM [falling, partial curve, poor fit]
O=C(N/N=C/C1C(c2ccccc2)C1(Cl)Cl)c1cccc(Cl)c1 (configuration not stated) |  | inconclusive: 29.1 µM [falling, single point]
O=C(NCC1CCCO1)c1cnn2c1NC(c1ccccc1)CC2C(F)(F)F (configuration not stated) | inconclusive: 1.25% | 
C/C(N)=C(/C#N)C(=O)CSc1nnc(-c2ccc(OC(F)F)cc2)o1 | inconclusive: -13.3% | 
CCCN(CCC)CCNC(=O)c1cc(Sc2ccc(Cl)cc2)nc2ccccc12 | inconclusive: -5.67% | 
CN1/C(=C/C=C(/C#N)C(N)=O)C(C)(C)c2ccccc21 |  | inconclusive: 25.1 µM [falling, single point]
